This data set has as its system Glucose dehydrogenase. Description: Enzymatic reduction with glucose and Glucose dehydrogenase, fluorescence emission spectra (FRET). The class given is biochemical. Particulars: excitation wavelength 360 nm; after completion of the reaction; 0.1 M Potassium phosphate buffer pH 7.0, 25° C., 100 mM Glucose, 1 mM carbaNAD form, 4 μM Glucose dehydrogenase. The protocol: The spectra were recorded from 370 nm to 700 nm with an excitation wavelength of 360 nm.
N6-[N-(6-“Cy 3” aminohexyl)carbamoylmethyl] carbaNADH was generated in situ from N6-[N-(6-“Cy 3” aminohexyl)carbamoylmethyl] carbaNAD by an enzymatic reaction with glucose and a Glucose dehydrogenase (as described in WO 2010/094632).
The reaction was carried out in a total volume of 1.5 ml in a closed vial in 0.1 M Potassium phosphate buffer pH 7.0 at 25° C. with 200 mM Sodium Chloride, 100 mM Glucose, 1 mM N6-[N-(6-“Cy 3” aminohexyl)carbamoylmethyl] carbaNAD and 4 μM Glucose dehydrogenase. The fluorescence spectra from 370 nM to 700 nM were recorded with an excitation wavelength of 360 nm directly before reaction start and after completion of the reaction (see FIG. 1). The generated N6-[N-(6-Cy3 aminohexyl) carbamoylmethyl] carbaNADH can be detected by the formation of two peaks at about 460 nm and 565 nm. The peak at about 460 nm represents the fluorescence of carbaNADH itself (see Ketteler et al., Fluorescence Properties of Carba Nicotinamide Adenine Dinucleotide for Glucose Sensing, ChemPhysChem (2012), 13(5), 1302-1306), whereas the peak at 565 nm represents the result of FRET to Cy3.

With “N6-[N-(6-“Cy 3” aminohexyl)carbamoylmethyl] carbaNADH”, the “fluorescence emission peak (fluorescence of carbaNADH itself)” value was “about 460 nm” and the “fluorescence emission peak (result of FRET to Cy3)” value was 565 nm.
